Measurements taken from patent US9140705B2, “Tumor suppressor killin” (Vanderbilt University, priority 2005, dated 2015).

Test system: double-stranded or single-stranded bacteria phage PhiX174 DNA
Test: Stability of the DNA-Killin peptide complex on agarose gel
Assay type: binding, PhiX174 bacterial phage

In the case of “Killin/N8-50: chemically synthesized peptide of 42 amino acid residues corresponding to N8-50 of Killin (SARPGRTVHVWGYRVEWKVRNGRKLQPSEWAGRGDLGGFKRRW; UniProt B2CW77 8-50, looked up, fragment)”, the “stability of peptide-DNA complex” value (6M urea and 150 mM EDTA, ds or ss PhiX174 DNA) is reported as “could withstand 6M urea and 150 mM EDTA” and the “stability of peptide-DNA complex” value (SDS at a concentration as low as 0.1%) is reported as “completely disrupt the Killin-DNA complex”.
